# Measured values as given in paper PMC10911279.
# Chains of the proteins cited; added tags and fusions are not shown.
# UniProt Q27331: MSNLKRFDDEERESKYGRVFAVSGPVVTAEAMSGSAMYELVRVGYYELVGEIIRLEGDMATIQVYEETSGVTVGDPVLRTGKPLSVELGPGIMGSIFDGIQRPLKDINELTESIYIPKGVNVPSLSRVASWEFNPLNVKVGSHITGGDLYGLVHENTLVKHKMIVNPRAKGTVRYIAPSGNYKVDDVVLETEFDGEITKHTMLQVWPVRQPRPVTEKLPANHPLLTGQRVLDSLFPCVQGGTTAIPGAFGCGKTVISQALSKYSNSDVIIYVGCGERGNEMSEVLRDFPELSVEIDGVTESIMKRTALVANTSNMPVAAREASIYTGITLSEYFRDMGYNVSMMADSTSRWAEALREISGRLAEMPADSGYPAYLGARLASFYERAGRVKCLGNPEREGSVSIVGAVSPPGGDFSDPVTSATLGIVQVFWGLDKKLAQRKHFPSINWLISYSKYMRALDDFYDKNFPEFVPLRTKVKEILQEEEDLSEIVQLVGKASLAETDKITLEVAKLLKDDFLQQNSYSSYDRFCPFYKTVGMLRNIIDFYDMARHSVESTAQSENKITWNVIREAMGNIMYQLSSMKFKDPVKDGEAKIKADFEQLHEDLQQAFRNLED
# T1: Vap33-YFP (endogenously YFP-tagged Vap33) (Drosophila (endogenous in embryos)) (UniProt Q9W4N8)
# T1 sequence: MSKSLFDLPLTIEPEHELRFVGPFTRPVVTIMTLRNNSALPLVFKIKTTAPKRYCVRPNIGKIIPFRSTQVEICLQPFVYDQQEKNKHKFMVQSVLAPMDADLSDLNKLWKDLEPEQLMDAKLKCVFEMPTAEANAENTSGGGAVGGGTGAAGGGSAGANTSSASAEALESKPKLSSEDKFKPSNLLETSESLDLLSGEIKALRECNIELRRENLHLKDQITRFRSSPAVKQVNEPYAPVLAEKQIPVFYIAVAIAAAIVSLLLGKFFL
# Molecular target: T1, Vap33-YFP (endogenously YFP-tagged Vap33) (Drosophila (endogenous in embryos))
# Experiment: affinity purification with mass spectrometry; Vap33-YFP captured from Drosophila embryo extracts on GFP-Trap resin (GFP nanobody); Default Lysis Buffer (50 mM Tris-HCl pH 7.5, 125 mM NaCl, 0.2% IGEPAL); three biological replicates against yw controls; SAINT analysis
row,binding,Molecule
1,binds,RtGEF (Rho-type guanine nucleotide exchange factor) (Drosophila (endogenous in embryos))
2,binds,Vha68-2 (V-ATPase component) (from UniProt Q27331 1-614)
3,binds,"Git (G protein-coupled receptor kinase interacting ArfGAP) (protein, UniProt Q95RG8 1-731) MCFASSIIEAHRKLFIAPPDLDHSDPATPTISTRSKMPRGKSRLQTEVCGDCGAGDPSWASINRGILLCADCCSVHRSLGRHISIVKSLRQGNWEPSVLNFVNSLNAHGANSVWEHHLLDGSTNSTGGKHVPRWRKPTPKDALHPTKSDFIKAKHVNLTFVLKPSLQDDDDGNGSAGCLEQELSRQLHASVRTSNLETSLRFLVQGADPNYYHEDKLSTPLHMAAKFGQASQIEMLLIYGADVNALDGNGMTPLELARANNHNTIAERLLDAMYDVTDRIITFLGGKKPDHASGRHMIIPDANGADISEQLKIARGKLQLVPNKMFEELVMDLYDEVDRRECEAIWSTSTLNADHATVPFLPANPFLSATRNQGRQKLARFNRAEFTGLLTDVLVDAMRRQNMANLRPMDAPVAGHQSLQSLPYANNSMLLGSFEQGGHDPNLSDDEPIYDPVASDDDYAPVPPMAQQAIVHTPPRSANSHNEMETLRKQLNDYKSEINQLKNVVQMLSSENTQLKSKFSSASNNSVYDEPLRIDLSLSSPDTEHEPLSLPEGGTANGESGSSNDSSNQSTIKRPASMYERRLVPNVAKGNTDIRNTTSMYQMAGDGKPFGEEVKVRSDLVTRRLKELIRAMQPVPEDQKQSIAPHGELIRSAVTDLIALYANLPPNASDPSRETLKLLTRQNILIQHECENLQKAIEADDKQAIQKNTLEVRDCAFHIASAIKTLVLQFY"

# Results are given in words; binding and its absence hold for the method and conditions named. Binding seen in cells or lysates may run through a third protein. Here binding means that the protein was enriched with, or labelled near, the bait; the list need not be complete. Tags and fused reporters may be left off the sequences shown.
